Experimental data taken from article PMC5261805.
These are yes or no findings as the source states them, for the method shown. Binding calls can cover weak binding; strength is not graded here.

The chains behind the UniProt entries cited, without tags or fusion partners. Where a name states a change or a piece, a line headed by the entry shows the natural chain unless it says otherwise.
UniProt G5EFD9: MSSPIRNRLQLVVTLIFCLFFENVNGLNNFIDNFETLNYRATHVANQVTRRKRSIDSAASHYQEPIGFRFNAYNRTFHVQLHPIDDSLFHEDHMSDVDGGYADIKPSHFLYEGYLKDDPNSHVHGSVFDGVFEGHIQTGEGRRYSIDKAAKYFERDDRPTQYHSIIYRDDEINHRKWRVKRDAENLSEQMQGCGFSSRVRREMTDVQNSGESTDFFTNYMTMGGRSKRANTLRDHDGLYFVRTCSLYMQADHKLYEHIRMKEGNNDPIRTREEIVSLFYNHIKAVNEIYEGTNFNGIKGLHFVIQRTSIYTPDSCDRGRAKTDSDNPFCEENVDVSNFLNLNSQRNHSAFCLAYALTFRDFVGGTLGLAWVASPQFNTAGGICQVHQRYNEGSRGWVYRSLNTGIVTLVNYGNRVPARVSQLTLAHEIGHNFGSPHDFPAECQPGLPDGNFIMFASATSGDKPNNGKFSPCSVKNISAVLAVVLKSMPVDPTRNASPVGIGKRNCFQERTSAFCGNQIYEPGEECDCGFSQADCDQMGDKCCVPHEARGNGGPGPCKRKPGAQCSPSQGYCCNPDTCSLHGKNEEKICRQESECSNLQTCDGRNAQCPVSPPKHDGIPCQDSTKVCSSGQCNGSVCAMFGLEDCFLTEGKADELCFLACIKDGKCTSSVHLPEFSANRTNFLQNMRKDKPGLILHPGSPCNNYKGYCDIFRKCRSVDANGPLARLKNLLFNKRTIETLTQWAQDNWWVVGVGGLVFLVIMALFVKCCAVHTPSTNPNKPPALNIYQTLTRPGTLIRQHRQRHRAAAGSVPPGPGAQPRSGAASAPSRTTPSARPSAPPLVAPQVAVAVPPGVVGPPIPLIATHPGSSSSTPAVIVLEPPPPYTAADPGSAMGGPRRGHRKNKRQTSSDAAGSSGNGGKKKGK

Columns and labels:
[1] = target: T1, TSP-12 (C. elegans) (UniProt Q22495); experiment: two-hybrid; mating-based split-ubiquitin yeast two-hybrid for membrane proteins; bait CubPLV and prey NubG fusions; diploid cells streaked on SC-Trp, -Leu, -Ade, -His, -Ura, -Met plates with 0, 0.075, 0.150 or 0.300 mM methionine; growth 2-9 days at 30°C
T1 sequence: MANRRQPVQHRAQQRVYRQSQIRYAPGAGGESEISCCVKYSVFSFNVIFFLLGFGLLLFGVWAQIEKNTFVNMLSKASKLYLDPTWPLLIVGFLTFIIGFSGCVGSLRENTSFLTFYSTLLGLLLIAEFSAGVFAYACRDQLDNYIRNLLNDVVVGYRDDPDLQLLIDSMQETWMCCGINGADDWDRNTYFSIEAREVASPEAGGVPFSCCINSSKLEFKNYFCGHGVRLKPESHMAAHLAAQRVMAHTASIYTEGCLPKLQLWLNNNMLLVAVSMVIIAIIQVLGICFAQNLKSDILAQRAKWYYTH

[2] = target: T2, TSP-14 (C. elegans) (UniProt H2L006); experiment: as above
T2 sequence: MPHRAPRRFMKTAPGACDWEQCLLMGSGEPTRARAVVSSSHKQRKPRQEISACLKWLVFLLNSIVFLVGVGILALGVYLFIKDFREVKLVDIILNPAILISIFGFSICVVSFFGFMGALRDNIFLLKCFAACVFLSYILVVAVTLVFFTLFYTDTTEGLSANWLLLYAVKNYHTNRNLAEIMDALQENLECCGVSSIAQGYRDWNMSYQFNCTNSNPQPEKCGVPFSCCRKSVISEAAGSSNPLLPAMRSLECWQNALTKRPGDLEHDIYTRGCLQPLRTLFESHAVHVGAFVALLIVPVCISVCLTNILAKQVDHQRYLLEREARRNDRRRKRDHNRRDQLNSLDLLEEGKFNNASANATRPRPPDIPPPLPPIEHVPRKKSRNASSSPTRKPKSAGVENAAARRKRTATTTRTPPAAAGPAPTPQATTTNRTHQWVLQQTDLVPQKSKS

In the case of SUP-17 (from UniProt G5EFD9) (enzyme), the binding [1] is reported as “binds” and the binding [2] is reported as “binds”.
